Experimental data published in publication PMC7785802, “Therapeutic Efficacy of a Trichinella Spiralis Paramyosin-Derived Peptide Modified With a Membrane-Targeting Signal in Mice With Antigen-Induced Arthritis” (Frontiers in Microbiology, 2020).
No constants are given. Whether binding was seen depends on the method and setting.

Protein sequences, listed by entry. Tags and fused reporters are not part of them. Residues count along the entry.
UniProt P02748, residues 22-559: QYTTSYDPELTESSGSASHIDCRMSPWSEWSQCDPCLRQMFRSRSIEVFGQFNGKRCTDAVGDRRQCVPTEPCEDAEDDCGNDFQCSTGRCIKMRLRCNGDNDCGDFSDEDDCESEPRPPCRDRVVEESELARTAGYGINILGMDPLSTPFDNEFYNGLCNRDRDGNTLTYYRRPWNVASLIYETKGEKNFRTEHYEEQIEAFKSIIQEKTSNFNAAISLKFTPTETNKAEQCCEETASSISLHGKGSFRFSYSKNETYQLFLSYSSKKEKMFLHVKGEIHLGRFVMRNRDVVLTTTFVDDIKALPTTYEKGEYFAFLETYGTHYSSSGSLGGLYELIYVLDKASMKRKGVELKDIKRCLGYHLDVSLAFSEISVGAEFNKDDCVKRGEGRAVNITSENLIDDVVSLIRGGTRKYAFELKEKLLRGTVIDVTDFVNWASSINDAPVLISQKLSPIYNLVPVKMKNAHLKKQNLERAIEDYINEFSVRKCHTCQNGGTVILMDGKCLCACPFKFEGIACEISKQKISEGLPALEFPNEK

Target: human complement component C9 (human) (UniProt P02748)
Experiment: MST; both purified

B1: control peptide (…) (peptide)
peptide: GKMSVMSVYKSVLS
binding: no binding (tested: 1.68 mM)
